Source: patent US20250282868A1
Results are given in words; binding and its absence hold for the method and conditions named. Some binding calls cover weakened binding; strength is not graded here.

Target: cynomolgus TREM2 (cynomolgus)
Experiment: column 'Considered cross-reactive', CHO-cynoTREM2 cells

binding | Binder
binds | EOS006173 (antibody, V domains shown) VH: EVQLVESGGGLVQPGRSLRLSCTASGFTFGDYAMSWFRQAPGKGLEWVGFIGSKAYGGTTEYTASVKGRFTISRDGSKSIAYLQMNSLKTEDTAVYYCARGKRRDYGYWHPAFDVWGQGTMVTVSS VL: DIQMTQSPSSLSASVGDRVTITCQASQDITNYLNWYQQKPGKAPKLLIYDASNLETGVPSRFSGSGSGTDFTFTISSLQPEDIATYYCQEYDQYLTFGGGTKVEIK
binds | EOS006175 (antibody, V domains shown) VH: QVQLQESGPGLVKPSGTLSLTCAVSGGSISSSNWWSWVRQPPGKGLEWIGEIYHSGSTNYNPSLKSRVTISVDKSKNQFSLKLSSVTAADTAVYYCARDTKYWGGMDVWGQGTTVTVSS VL: DIQMTQSPSSLSASVGDRVTITCQASQDISNYLNWYQQKPGKAPKLLIYDASNLATGVPSRFSGSGSGTDFTFTISSLQPEDIATYYCQQYVEAPTFGGGTKVEIK
binds | EOS006181 (antibody, V domains shown) VH: EVQLVESGGGLVQPGRSLRLSCTASGFTFDDHAMSWFRQAPGKGLEWVGFIGSKAYGGTTEYTASVKGRFTISRDGSKSIAYLQMNSLKTEDTAVYYCARGKRYSYTYWTPAFDVWGQGTMVTVSS VL: DIQMTQSPSSLSASVGDRVTITCQASQDITNYLNWYQQKPGKAPKLLIYDASNLETGVPSRFSGSGSGTDFTFTISSLQPEDIATYYCQQYDSYLTFGGGTKVEIK
binds | EOS006166 (antibody, V domains shown) VH: EVQLVESGGGLVQPGRSLRLSCTASGFTFGDYAMSWFRQAPGKGLEWVGFIGSKAYGGTTEYTASVKGRFTISRDGSKSIAYLQMNSLKTEDTAVYYCARGKRYSYGYWHPAFDVWGQGTMVTVSS VL: DIQMTQSPSSLSASVGDRVTITCQASQDITNYLNWYQQKPGKAPKLLIYDASNLETGVPSRFSGSGSGTDFTFTISSLQPEDIATYYCQQYDSYLTFGGGTKVEIK
binds | EOS006174 (antibody, V domains shown) VH: EVQLVESGGGLVQPGRSLRLSCTASGFTFGEYTMSWFRQAPGKGLEWVGFIGSKAYAGTTEYTASVKGRFTISRDGSKSIAYLQMNSLKTEDTAVYYCARGKRYSYGGWVPAFDVWGQGTMVTVSS VL: DIQMTQSPSSLSASVGDRVTITCQASQDITNYLNWYQQKPGKAPKLLIYDASNLETGVPSRFSGSGSGTDFTFTISSLQPEDIATYYCQEYDSYLAFGGGTKVEIK
binds | EOS006177 (antibody, V domains shown) VH: QVQLQESGPGLVKPSGTLSLTCAVSGGSISDSAWWSWVRQPPGKGLEWIGEIYHDADTNYNPSLKSRVTISVDKSKNQFSLKLSSVTAADTAVYYCARDTKYWGGMDVWGQGTTVTVSS VL: DIQMTQSPSSLSASVGDRVTITCQASQDISNYLNWYQQKPGKAPKLLIYDASNLATGVPSRFSGSGSGTDFTFTISSLQPEDIATYYCQQYVEAPTFGGGTKVEIK
binds | EOS006164 (antibody, V domains shown) VH: EVQLVESGGGLVQPGRSLRLSCTASGFTFDDYTMSWFRQAPGKGLEWVGFIGSKAYSATTEYTASVKGRFTISRDGSKSIAYLQMNSLKTEDTAVYYCARGKRYSYTYWTPAFDVWGQGTMVTVSS VL: DIQMTQSPSSLSASVGDRVTITCQASQDITNYLNWYQQKPGKAPKLLIYDASNLETGVPSRFSGSGSGTDFTFTISSLQPEDIATYYCQEYDSYITFGGGTKVEIK
binds | Ab52 (antibody, V domains shown) VH: QVQLVQSGAEVKKPGASVKVSCKASGYTFTSYYIHWVRQAPGQGLEWMGIINPSGGSTSYAQKFQGRVTMTRDTSTSTVYMELSSLRSEDTAVYYCAREADDSSGYPLGLDVWGQGTMVTVSS VL: EIVMTQSPATLSVSPGERATLSCRASQSVSSNLAWYQQKPGQAPRLLIYGASTRATGIPARFSGSGSGTEFTLTISSLQSEDFAVYYCQQVNSLPPTFGGGTKVEIK
